Test results published in publication doi:10.1101/2023.09.17.558147.
Like-named read-outs stand apart in the source and are kept apart here. Results are given in words; binding and its absence hold for the method and conditions named. In cells and extracts the contact can be indirect. A yes stands for co-enrichment or nearness to the bait. Other partners may have been found. For some of these results: A no says only that the protein was not detected with the bait. One block for each molecule: values may come before it.

Sequences of proteins named here, by UniProt entry; tags and fusion partners are left off. A change or cut given only in a name is not applied to a line headed by its entry.
UniProt P51979: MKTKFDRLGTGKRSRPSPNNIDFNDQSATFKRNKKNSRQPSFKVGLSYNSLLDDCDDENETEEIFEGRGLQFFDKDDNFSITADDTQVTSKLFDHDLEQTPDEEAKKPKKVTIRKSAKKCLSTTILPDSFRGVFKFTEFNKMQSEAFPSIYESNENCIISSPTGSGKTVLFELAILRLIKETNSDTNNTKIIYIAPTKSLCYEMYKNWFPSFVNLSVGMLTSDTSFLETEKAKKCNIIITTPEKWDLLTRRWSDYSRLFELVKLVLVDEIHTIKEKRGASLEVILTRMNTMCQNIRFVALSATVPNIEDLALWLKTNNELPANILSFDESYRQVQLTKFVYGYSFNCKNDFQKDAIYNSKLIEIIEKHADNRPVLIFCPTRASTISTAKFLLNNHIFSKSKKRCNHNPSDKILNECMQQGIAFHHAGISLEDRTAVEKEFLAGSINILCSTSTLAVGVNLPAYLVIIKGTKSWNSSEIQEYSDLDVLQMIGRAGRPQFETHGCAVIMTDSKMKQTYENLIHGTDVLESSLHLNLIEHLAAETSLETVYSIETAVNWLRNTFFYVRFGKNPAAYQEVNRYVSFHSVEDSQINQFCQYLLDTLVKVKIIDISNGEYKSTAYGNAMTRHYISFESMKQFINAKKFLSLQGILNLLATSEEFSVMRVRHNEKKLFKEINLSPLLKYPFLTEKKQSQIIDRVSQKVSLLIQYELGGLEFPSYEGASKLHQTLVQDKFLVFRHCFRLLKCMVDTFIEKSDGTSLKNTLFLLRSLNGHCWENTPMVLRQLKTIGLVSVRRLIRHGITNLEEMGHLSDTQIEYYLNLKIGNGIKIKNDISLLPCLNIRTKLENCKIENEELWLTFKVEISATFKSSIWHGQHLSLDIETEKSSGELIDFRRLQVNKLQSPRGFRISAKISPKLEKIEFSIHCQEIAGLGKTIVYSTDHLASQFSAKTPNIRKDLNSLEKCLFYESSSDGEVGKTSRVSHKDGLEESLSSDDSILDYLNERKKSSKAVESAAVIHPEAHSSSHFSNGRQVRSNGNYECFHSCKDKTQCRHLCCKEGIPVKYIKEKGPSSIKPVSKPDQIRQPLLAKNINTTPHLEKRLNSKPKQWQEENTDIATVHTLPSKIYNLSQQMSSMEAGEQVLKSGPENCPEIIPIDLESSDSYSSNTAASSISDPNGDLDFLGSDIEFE
UniProt Q12306: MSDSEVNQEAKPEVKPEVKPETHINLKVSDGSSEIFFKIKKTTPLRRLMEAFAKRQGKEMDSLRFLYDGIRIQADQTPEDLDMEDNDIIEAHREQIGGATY

Legend:
Assay in all cases: proximity labelling
[1] = molecular target: T1, Msh5-TurboID (S. cerevisiae) (UniProt Q12175)
T1 sequence: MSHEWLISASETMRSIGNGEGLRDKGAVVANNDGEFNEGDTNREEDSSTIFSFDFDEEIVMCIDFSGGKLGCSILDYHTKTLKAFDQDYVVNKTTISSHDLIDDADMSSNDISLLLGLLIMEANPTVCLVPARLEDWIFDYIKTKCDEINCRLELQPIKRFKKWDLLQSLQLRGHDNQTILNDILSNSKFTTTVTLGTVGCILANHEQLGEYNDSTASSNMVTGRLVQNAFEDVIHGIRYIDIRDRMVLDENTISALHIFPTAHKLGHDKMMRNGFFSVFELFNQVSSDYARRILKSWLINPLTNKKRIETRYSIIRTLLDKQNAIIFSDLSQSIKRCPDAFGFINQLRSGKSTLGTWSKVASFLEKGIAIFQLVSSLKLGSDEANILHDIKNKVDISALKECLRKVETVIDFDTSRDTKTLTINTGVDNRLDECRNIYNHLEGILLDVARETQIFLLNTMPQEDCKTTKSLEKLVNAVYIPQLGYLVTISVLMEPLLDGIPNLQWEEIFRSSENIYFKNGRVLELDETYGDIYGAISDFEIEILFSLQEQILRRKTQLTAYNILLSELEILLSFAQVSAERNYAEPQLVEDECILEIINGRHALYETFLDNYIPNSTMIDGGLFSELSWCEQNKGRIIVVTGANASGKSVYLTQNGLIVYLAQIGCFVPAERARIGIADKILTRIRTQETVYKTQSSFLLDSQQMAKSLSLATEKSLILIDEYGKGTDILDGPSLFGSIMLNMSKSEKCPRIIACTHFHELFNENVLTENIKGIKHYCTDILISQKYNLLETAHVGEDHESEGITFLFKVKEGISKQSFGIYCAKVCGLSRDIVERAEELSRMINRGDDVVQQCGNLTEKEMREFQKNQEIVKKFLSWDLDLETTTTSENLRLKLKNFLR

[2] = molecular target: T2, Msh4-TurboID (S. cerevisiae) (UniProt P40965)
T2 sequence: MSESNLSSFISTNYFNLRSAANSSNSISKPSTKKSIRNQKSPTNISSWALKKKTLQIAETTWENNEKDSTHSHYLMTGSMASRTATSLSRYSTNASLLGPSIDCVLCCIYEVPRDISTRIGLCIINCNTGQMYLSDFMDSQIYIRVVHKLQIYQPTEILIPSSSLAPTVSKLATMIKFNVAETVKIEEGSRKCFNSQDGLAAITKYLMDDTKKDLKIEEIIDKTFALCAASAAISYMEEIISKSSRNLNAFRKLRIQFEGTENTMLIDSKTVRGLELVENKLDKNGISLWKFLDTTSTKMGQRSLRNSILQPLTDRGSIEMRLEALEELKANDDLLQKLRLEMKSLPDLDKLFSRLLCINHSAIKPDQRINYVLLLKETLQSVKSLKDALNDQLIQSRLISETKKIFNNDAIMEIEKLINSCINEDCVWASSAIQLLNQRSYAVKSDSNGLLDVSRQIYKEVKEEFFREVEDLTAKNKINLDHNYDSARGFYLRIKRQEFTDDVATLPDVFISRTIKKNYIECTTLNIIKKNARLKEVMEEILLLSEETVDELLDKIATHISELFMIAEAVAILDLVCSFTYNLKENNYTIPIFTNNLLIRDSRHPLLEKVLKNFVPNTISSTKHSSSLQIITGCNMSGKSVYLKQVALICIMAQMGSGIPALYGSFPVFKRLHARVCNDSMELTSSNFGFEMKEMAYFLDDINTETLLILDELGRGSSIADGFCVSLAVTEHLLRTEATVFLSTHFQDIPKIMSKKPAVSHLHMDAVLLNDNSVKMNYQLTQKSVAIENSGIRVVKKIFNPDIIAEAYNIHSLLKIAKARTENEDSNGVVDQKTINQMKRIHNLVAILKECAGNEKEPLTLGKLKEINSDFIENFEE

[3] = molecular target: T3, Ecm11-TurboID (S. cerevisiae) (UniProt Q04110)
T3 sequence: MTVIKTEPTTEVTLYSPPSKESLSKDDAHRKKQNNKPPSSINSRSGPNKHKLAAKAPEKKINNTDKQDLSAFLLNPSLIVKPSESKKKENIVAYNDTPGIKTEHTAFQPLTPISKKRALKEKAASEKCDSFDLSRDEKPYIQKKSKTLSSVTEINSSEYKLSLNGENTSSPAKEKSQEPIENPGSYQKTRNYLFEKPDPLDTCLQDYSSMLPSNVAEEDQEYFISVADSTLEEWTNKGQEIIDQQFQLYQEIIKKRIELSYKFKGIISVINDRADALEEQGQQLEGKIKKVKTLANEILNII

[4] = molecular target: T4, Mlh3-TurboID (S. cerevisiae) (UniProt Q12083)
T4 sequence: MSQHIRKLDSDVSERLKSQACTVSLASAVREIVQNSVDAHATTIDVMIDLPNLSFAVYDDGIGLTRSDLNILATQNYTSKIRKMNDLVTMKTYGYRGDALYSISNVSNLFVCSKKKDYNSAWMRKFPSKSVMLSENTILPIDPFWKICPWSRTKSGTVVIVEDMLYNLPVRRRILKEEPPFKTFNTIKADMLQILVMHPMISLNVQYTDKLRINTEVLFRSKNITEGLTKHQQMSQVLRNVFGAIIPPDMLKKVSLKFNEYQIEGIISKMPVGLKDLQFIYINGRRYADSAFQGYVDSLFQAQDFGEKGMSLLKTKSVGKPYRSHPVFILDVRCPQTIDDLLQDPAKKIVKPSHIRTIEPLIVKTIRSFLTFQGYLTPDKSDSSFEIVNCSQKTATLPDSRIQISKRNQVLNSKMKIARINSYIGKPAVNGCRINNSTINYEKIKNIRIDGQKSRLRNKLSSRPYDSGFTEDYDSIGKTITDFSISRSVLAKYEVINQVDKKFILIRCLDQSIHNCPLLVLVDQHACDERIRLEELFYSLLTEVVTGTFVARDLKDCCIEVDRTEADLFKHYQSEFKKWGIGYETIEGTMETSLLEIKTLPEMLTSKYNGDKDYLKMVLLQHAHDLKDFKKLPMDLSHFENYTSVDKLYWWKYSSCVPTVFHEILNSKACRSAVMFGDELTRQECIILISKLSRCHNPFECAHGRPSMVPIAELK

[5] = molecular target: T5, Zip3iTurboID (S. cerevisiae) (UniProt Q06032)
T5 sequence: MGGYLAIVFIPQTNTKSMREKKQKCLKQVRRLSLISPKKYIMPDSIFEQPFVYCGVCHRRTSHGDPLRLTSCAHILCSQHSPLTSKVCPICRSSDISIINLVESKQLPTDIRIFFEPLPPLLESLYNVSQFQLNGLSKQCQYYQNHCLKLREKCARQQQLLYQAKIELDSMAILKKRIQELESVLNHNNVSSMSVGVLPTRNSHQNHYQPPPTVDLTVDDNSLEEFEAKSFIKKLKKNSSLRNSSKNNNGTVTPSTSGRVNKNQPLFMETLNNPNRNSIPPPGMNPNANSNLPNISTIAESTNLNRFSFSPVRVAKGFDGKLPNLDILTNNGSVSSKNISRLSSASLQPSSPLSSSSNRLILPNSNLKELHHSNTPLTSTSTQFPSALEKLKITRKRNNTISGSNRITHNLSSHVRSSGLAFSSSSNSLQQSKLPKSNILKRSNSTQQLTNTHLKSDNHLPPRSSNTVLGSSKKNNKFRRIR

[6] = molecular target: T6, TurboID-Gmc2 (S. cerevisiae) (UniProt Q06201)
T6 sequence: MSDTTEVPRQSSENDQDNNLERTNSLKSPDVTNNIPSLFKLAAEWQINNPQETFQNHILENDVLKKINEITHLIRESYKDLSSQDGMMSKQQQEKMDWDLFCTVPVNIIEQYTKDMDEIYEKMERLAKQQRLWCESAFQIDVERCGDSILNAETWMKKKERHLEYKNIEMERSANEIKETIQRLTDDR

[7] = molecular target: Mer3-TurboID (S. cerevisiae) (UniProt P51979)
[8] = molecular target: T7, Ecm11-TurboID (S. cerevisiae), Q04110; details: remark: other sources report otherwise
T7 chain: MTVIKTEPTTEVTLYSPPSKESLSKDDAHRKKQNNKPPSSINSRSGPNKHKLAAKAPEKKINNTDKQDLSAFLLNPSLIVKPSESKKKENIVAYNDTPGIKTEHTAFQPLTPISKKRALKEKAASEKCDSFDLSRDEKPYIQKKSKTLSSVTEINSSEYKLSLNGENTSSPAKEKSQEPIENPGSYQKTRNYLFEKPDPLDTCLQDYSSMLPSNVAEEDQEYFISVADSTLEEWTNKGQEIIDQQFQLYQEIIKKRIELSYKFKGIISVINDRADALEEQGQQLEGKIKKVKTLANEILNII

[9] = molecular target: T1, Msh5-TurboID (S. cerevisiae); remark: listed apart in the source
[10] = molecular target: T3, Ecm11-TurboID (S. cerevisiae); remark: listed apart in the source

Molecule: Mer3 helicase (from UniProt P51979 1-1187)
- binding [1]: binds
- binding [2]: binds

Molecule: SUMO protein (encoded by the SMT3 gene) (from UniProt Q12306)
- binding [3]: binds

B3: Ecm11 (protein, UniProt Q04110 1-302)
chain: MTVIKTEPTTEVTLYSPPSKESLSKDDAHRKKQNNKPPSSINSRSGPNKHKLAAKAPEKKINNTDKQDLSAFLLNPSLIVKPSESKKKENIVAYNDTPGIKTEHTAFQPLTPISKKRALKEKAASEKCDSFDLSRDEKPYIQKKSKTLSSVTEINSSEYKLSLNGENTSSPAKEKSQEPIENPGSYQKTRNYLFEKPDPLDTCLQDYSSMLPSNVAEEDQEYFISVADSTLEEWTNKGQEIIDQQFQLYQEIIKKRIELSYKFKGIISVINDRADALEEQGQQLEGKIKKVKTLANEILNII
modifications: biotinylated by TurboID (sites not given)
- binding [4]: no binding
- binding [9]: binds
- binding [6]: binds
- binding [7]: binds
- binding [10]: binds

The remaining lines, values ahead:

- binding [4]: no binding
- binding [5]: binds
- binding [6]: no binding
- binding [7]: binds
B1: Zip3 (protein, UniProt Q06032 1-482)
chain: MGGYLAIVFIPQTNTKSMREKKQKCLKQVRRLSLISPKKYIMPDSIFEQPFVYCGVCHRRTSHGDPLRLTSCAHILCSQHSPLTSKVCPICRSSDISIINLVESKQLPTDIRIFFEPLPPLLESLYNVSQFQLNGLSKQCQYYQNHCLKLREKCARQQQLLYQAKIELDSMAILKKRIQELESVLNHNNVSSMSVGVLPTRNSHQNHYQPPPTVDLTVDDNSLEEFEAKSFIKKLKKNSSLRNSSKNNNGTVTPSTSGRVNKNQPLFMETLNNPNRNSIPPPGMNPNANSNLPNISTIAESTNLNRFSFSPVRVAKGFDGKLPNLDILTNNGSVSSKNISRLSSASLQPSSPLSSSSNRLILPNSNLKELHHSNTPLTSTSTQFPSALEKLKITRKRNNTISGSNRITHNLSSHVRSSGLAFSSSSNSLQQSKLPKSNILKRSNSTQQLTNTHLKSDNHLPPRSSNTVLGSSKKNNKFRRIR

- binding [8]: binds
B2: Zip1, P31111 1-875 (protein)
chain: MSNFFRDSSMGFKPRPNIFAKLRVRDVDSDSSANTVVENSSNCLDVGSSIEGDDTFKKPHKTSTEQELITSMSLSQRNHGYSDDMEIGSPKKTTSTDQYNRILKNDVAAIENDTDEDFEITEVREVSEGVAKETKESHGDPNDSETTLKDSKMHEYTMTNGKAPLHTSINNSSTSSNDVLLEAFTNTQRICSNLKQELQKQQQDNAKLKVRLQSYASNSDKINEKVGKYKSCLETLQERIATLTSHKNNQETKLKDLRQNHQLYQRRISGFKTSIENLNKTINDLGKNKKEADAELMKKGKEIEYLKRELDDCSGQLSEEKIKNSSLIQEMGKNREEMIKSIENFFSEDKAHHLLQFNKFEERVHDLFEKKLQKHFDVAKDTLNVGLRNTTVELSSNTETMLKQQYEDIKENLEQKMSSSKDEMAKTINELSVTQKGLIMGVQEELLTSSGNIQTALVSEMNNTRQELLDDASQTAKNYASLENLVKAYKAEIVQSNEYEERIKHLESERSTLSSQKNQIISSLGTKEAQYEDLVKKLEAKNIEISQISGKEQSLTEKNENLSNELKKVQDQLEKLNNLNITTKSNYENKISSQNEIVKALVSENDTLKQRIQQLVEIKENEQKDHTTKLEAFQKNNEQLQKLNVEVVQLKAHELELEEQNRHLKNCLEKKETGVEESLSDVKTLKQQVIVLKSEKQDITAEKLELQDNLESLEEVTKNLQQKVQSQKRELEQKIKELEEIKNHKRNEPSKKGTQNFTKPSDSPKKNATTSNLFPNNSAAIHSPMKKCPKVDHISKSRINSSKETSKFNDEFDLSSSSNDDLELTNPSPIQIKPVRGKIKKGSNCMKPPISSRKKLLLVEDEDQSLKISKKRRRK
